Measurements as given in patent US20150376225A1, “NOVEL COMPOUNDS OF 11BETA-HYDROXY-STEROIDS FOR USE IN MITOCHONDRIA BIOGENESIS AND DISEASES ASSOCIATED WITH MITOCHONDRIAL DYSFUNCTION OR DEPLETION” (SPHAERA PHARMA PVTD. LTD., priority 2013, published 2015).

Tested on: BCAEC
Assay: 3-(4,5-Dimethylthiazol-2-yl)-2,5-diphenyltetrazolium bromide (MTT) assay, mitochondrial function (MTT/Methylene Blue ratio)
Assay type: cell-based, bovine
Conditions: treated for 48 hours
Description: 3-(4,5-Dimethylthiazol-2-yl)-2,5-diphenyltetrazolium bromide (MTT) assay
6,000 BCAEC were seeded into clear 96-well flat bottom plates at 100 μl per well. After starvation, cells were treated for 48 hours with the corresponding compounds. Compounds were changed every 12 and 24 hours (with 100 μl per well of fresh medium). Following the treatment medium was aspirated from plates, and washed once with 100 μl HBSS, subsequently 100 μl per well 0.5 mg/ml MTT in phenol red-free DMEM was added. Plates were incubated for 1 hour at 37° C., and this was followed by aspiration of MTT solution, addition of 100 μl per well DMSO to dissolve formazan crystals, and incubation at 37° C. for 15 minutes. Mitochondrial function was quantified by absorbance was measured at 540 nm with background substraction at 670 nm using. After MTT absorbance measure, media was removed and cells quantify in each well as described elsewhere (Oliver et al, 1989) with some modifications. In brief, 100 μl of 10% formol saline to each well was added, and incubated at 4° C. for 24 hours. Next, formol solution was removed from the wells and 100 μl of filtered 0.1% (w/v) Methylene Blue in 0.01 M borate buffer (pH 8.5) was added to each well. […] Absorbance was measured at 650 nm. The MTT/Methylene Blue ratio was used to quantify the mitochondrial function. […]

How did the “MTT Assay” value turn out when `CC(=O)[C@H]1CC[C@H]2[C@@H]3CC=C4C[C@@H](O)CC[C@]4(C)[C@H]3[C@@H](O)C[C@]12C` [Compound 1002, 1-((3S,8S,9S,10R,11S,13S,14S,17S)-3,11-dihydroxy-10,13-dimethyl-2,3,4,7,8,9,10,11,12,13,14,15,16,17-tetradecahydro-1H-cyclopenta[a]phenanthren-17-yl)ethanone] was run?
The value was “+ (+ indicates >110%)”.

For `CC(=O)[C@H]1CCC2C3CC=C4C[C@@H](O)CC[C@]4(C)C3[C@@H](O)C[C@@]21C` (stereo partly drawn) [Compound 1016, 1-((3S,10R,11S,13S,17S)-3,11-dihydroxy-10,13-dimethyl-2,3,4,7,8,9,10,11,12,13,14,15,16,17-tetradecahydro-1H-cyclopenta[a]phenanthren-17-yl)ethan-1-one], which “MTT Assay” value is on record?
Its value is “− (− indicates ≦110%)”.
